In the test the target is T1, AtMED25-GFP (35S:AtMED25-GFP plants) (Arabidopsis thaliana) (UniProt Q7XYY2).
T1 sequence: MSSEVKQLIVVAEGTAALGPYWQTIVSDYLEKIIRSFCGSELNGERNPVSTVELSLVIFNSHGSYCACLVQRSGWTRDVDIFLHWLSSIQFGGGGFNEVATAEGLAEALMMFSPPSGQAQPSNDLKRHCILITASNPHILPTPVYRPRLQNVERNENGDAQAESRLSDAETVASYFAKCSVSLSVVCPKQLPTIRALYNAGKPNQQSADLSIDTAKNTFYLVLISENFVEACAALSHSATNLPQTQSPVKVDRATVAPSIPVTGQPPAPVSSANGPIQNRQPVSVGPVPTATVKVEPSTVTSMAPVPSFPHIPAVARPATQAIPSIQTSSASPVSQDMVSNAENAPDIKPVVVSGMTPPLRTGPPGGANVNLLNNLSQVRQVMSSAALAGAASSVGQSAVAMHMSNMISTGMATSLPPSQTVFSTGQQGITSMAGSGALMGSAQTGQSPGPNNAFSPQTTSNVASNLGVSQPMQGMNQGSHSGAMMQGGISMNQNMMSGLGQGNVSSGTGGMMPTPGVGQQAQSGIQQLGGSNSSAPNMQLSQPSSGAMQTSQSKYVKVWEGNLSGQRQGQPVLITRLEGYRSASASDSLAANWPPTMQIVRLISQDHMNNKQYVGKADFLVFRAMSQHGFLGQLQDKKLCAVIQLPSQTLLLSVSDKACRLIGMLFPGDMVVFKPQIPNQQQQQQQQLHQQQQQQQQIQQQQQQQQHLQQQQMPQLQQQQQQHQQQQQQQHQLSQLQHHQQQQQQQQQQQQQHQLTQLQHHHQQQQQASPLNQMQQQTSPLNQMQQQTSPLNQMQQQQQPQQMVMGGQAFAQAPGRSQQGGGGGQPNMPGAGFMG
Description: affinity purification with mass spectrometry.

Results are given in words; binding and its absence hold for the method and conditions named. In cells and extracts the contact can be indirect. Here binding means that the protein was enriched with, or labelled near, the bait; the list need not be complete. Sequences can lack the tags named with a protein.

B1: AtMED11 (endogenous) (protein, UniProt Q6ID77 1-115)
chain: MDPQTQNTSLQRLQNVENRVVKVLELAGGVMEELASPSGPKKEFVNSHCREFMQSMKDIQVTLREEIKSACEYRPFEKCDYNARIANEICFQKLEYVLTQLEDLKQTADRYPSSD
In the case of B1, the binding result is “binds”.

B2: J3 (endogenous) (protein, UniProt Q94AW8 1-420)
chain: MFGRGPSKKSDNTKFYEILGVPKSASPEDLKKAYKKAAIKNHPDKGGDPEKFKELAQAYEVLSDPEKREIYDQYGEDALKEGMGGGGGGHDPFDIFSSFFGGGPFGGNTSRQRRQRRGEDVVHPLKVSLEDVYLGTMKKLSLSRNALCSKCNGKGSKSGASLKCGGCQGSGMKVSIRQLGPGMIQQMQHACNECKGTGETINDRDRCPQCKGDKVIPEKKVLEVNVEKGMQHSQKITFEGQADEAPDTVTGDIVFVLQQKEHPKFKRKGEDLFVEHTLSLTEALCGFQFVLTHLDGRSLLIKSNPGEVVKPDSYKAISDEGMPIYQRPFMKGKLYIHFTVEFPDSLSPDQTKALEAVLPKPSTAQLSDMEIDECEETTLHDVNIEDEMRRKAQAQREAYDDDDEDDDHPGGAQRVQCAQQ
As to B2, the binding result is on record as “binds”.

For the origin of these results see doi:10.1101/2024.01.26.577166.
